PubChem BioAssay AID1259405 | NCATS – 2018
The deposit covers about 50,000 reagents; this is an unselected part. About 4,000 of all reagents (8%) count as active. 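Mouse siRNA library applied to hamster cells; one well for each siRNA.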 Entries without a mark were called inactive. Reagents against one gene are numbered here.

Assay: 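Mouse-designed siRNAs used to find CHO productivity engineering targets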 (primary screen)
Cell system: Chinese hamster CHO-K1 ovary cells with stable secreted eGFP expression
Reagents: single siRNA against mouse genes, 0.8 pmol siRNA per well (2 µl of 400 nM stock)
Timing: 3 days
Detection: 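Per-well intracellular GFP measured by laser scanning cytometry, plus viability from ATP luminescence, each relative to plate median of non-targeting control wells, in %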
Scale: GFP, % of control: higher = more GFP per well, higher productivity; viability (ATP), % of control: higher = more viable cells (more ATP)
Rule for the call: 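Called active when intracellular GFP, relative to negative control, is at or above 120%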

| target gene | siRNA no. | GFP, % of control | viability (ATP), % of control |
| --- | --- | --- | --- |
| Panx1 | 1 | 57.1 | 80.7 |
| Panx1 | 2 | 77 | 51.3 |
| Panx1 | 3 | 62.5 | 75.9 |
| Alppl2 | 1 | 109 | 76.4 |
| Alppl2 | 2 | 85.5 | 73.1 |
| Alppl2 | 3 | 81 | 68.6 |
| Cd79b | 1 | 76 | 96.5 |
| Cd79b | 2 | 60.9 | 55.5 |
| Cd79b | 3 | 65.3 | 83.1 |
| D630004N19Rik | 1 | 53.4 | 62.3 |
| D630004N19Rik | 2 | 116 | 71.1 |
| D630004N19Rik | 3 | 94.8 | 88.5 |
| Erlin2 | 1 | 76 | 54.3 |
| Erlin2 | 2 | 60.2 | 72.3 |
| Erlin2 | 3 | 147 (active) | 138 |
| Erg | 1 | 79.6 | 76.5 |
| Erg | 2 | 119 | 52 |
| Erg | 3 | 118 | 56.4 |
| Barx1 | 1 | 119 | 108 |
| Barx1 | 2 | 29.8 | 65.4 |
| Barx1 | 3 | 56.5 | 79.5 |
| Kars1 | 1 | 64.2 | 89.3 |
| Kars1 | 2 | 45.9 | 56.4 |
| Kars1 | 3 | 81.6 | 81.3 |
| Htr5a | 1 | 66.8 | 70.5 |
| Htr5a | 2 | 101 | 101 |
| Htr5a | 3 | 99.8 | 52.4 |
| Slc26a7 | 1 | 70.3 | 65.6 |
| Slc26a7 | 2 | 72.4 | 59.8 |
| Slc26a7 | 3 | 54.5 | 50.5 |
| Pramel31 | 1 | 66.3 | 66.5 |
| Pramel31 | 2 | 135 (active) | 83.4 |
| Pramel31 | 3 | 77.2 | 72.2 |
| Aldh1a2 | 1 | 58.9 | 74.6 |
| Aldh1a2 | 2 | 73.7 | 69.5 |
| Aldh1a2 | 3 | 74.9 | 83.3 |
| Otud6b | 1 | 99.8 | 69.2 |
| Otud6b | 2 | 68.3 | 59.2 |
| Otud6b | 3 | 79 | 60.4 |
| Tyw2 | 1 | 71.5 | 34.8 |
| Tyw2 | 2 | 117 | 91.8 |
| Tyw2 | 3 | 68.7 | 61.1 |
| St14 | 1 | 66.4 | 66 |
| St14 | 2 | 60.8 | 74.1 |
| St14 | 3 | 73.3 | 88.3 |
| Osgep | 1 | 69.3 | 51.6 |
| Osgep | 2 | 39.5 | 50.7 |
| Osgep | 3 | 30.6 | 57.3 |
| Bag6 | 1 | 116 | 113 |
| Bag6 | 2 | 117 | 89 |
| Rln3 | 1 | 67.5 | 81.5 |
| Rln3 | 2 | 53.4 | 70 |
| Rln3 | 3 | 68.3 | 78.9 |
| Fcer1g | 1 | 92.9 | 77.1 |
| Fcer1g | 2 | 53.1 | 40 |
| Fcer1g | 3 | 69.4 | 67.5 |
| Klhl13 | 1 | 79.8 | 89.4 |
| Klhl13 | 2 | 86.3 | 74.8 |
| Klhl13 | 3 | 79.9 | 91.4 |
